Results from US20220354791A1, “MESOPOROUS POLYMERIC PARTICULATE MATERIAL” (Aston University, priority 2019, published 2022).

Assay: Dissolution testing of FURO-loaded mesoporous particles (USP I rotating basket)
Type: physicochemical
Conditions: after 120 mins; HCl-NaCl pH 3.0 medium + 0.25% SLS, 900 mL, 37° C., 100 rpm, 40 mg FURO in HPMC capsule
Protocol: Testing conditions: HCL-NaCl medium pH 3+0.25% SLS, 900 mL, USP apparatus 1 (rotating basket), 100 rpm, HPLC method (mobile phase: pH 3 phosphate buffer:acetonitrile (60:40); column: C18, 15 cm×4.6 mm, 5 μm; flow rate: 1 mL/min; injection volume: 10 μL; detector: UV, 234 nm).
Dissolution testing of FURO-loaded mesoporous particles as prepared in Example 5 was performed by using USP I apparatus (rotating basket, 100 rpm) in an Erweka DT 126 dissolution tester. Samples containing 40 mg FURO were loaded into a HPMC hard-shell capsule and tested in 900 mL of HCl—NaCl pH 3.0 medium with 0.25% SLS at 37° C. The concentrations of dissolved FURO were determined using a HPLC method with mobile phase of phosphate buffer pH 3: acetonitrile (60:40), C18 column (15 cm×4.6 mm, 5 μm), column temperature of 35° C., flow rate of 1 mL/min, injection volume of 10 μL, and UV detector at 234 nm in an Agilent 1200 HPLC system.

- Furosemide dissolution rate: 65.3%
Structure (SMILES): NS(=O)(=O)c1cc(C(=O)O)c(NCc2ccco2)cc1Cl [Furosemide raw material, Furosemide]
